The assay concerns the target T1, trimeric extracellular domain (ECD) of rat macrophage galactose lectin (MGL) (rat) (UniProt P49301).
T1 sequence: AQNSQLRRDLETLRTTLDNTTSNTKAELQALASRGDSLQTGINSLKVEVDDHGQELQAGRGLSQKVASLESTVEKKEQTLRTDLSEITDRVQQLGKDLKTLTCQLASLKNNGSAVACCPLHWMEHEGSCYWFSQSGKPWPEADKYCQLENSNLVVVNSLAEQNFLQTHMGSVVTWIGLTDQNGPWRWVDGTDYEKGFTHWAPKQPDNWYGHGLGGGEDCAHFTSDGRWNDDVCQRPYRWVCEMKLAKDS
As to the kind of experiment: radioligand binding; competition: CRD or ECD of MGL coated on polystyrene wells, 125I-labeled Gal-BSA as reporter ligand, competing ligand titrated; KI = concentration for 50% inhibition; both purified.

Sequences of proteins named here, by UniProt entry; tags and fusion partners are left off. Residues count along the entry.
UniProt P02769, residues 25-607: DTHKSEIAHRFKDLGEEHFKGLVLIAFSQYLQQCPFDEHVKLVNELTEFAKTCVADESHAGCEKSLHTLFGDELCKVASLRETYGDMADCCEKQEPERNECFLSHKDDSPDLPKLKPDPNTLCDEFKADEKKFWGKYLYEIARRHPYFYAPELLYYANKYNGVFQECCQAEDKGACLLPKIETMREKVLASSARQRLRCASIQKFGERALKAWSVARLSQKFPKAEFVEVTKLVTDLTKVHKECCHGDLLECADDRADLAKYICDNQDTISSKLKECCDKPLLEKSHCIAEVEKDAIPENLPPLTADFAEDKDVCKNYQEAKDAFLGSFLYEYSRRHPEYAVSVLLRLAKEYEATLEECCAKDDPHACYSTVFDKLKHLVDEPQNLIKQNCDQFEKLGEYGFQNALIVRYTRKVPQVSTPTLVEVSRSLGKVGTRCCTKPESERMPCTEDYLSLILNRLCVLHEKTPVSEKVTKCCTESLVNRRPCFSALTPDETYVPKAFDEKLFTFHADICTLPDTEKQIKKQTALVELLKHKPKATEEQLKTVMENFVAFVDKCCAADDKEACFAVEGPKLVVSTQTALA

These are yes or no findings as the source states them, for the method shown. Some results given as binding are weak or reduced against the parent protein; the word gives no strength.

Regarding “125I-labeled Gal-BSA (from UniProt P02769 25-607)”, the binding result was “binds”.

The values are drawn from PMC2824085.
